{"source": "PubChem BioAssay AID651640", "about": "(Broad Institute, 2012)", "note": "Out of some 350,000 compounds screened, about 6,000 (1.7%) were called active. The shares of active, inactive and inconclusive entries below differ from those in the screen. Rule as the data show it: active = CPE inhibition above about 20% (passing the limit was not always enough); inconclusive = no clear call, values can overlap the other calls; tested in BHK-21 cells."}
{"assay": "protection of cells from dengue 2 killing – plate reader, single concentration, primary screen (AID 651640);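 also: 0% = median of neutral control wells and 100% = median of positive control wells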", "conditions": "DENV2-infected cells, cytopathic effect rescue, at 9.99 µM, active compounds read high"}
{"smiles": "COC(=O)c1[nH]c2ccccc2c1NC(=O)/C=C/c1ccc2c(c1)OCO2", "CPE inhibition": "active: 37.6%"}
{"smiles": "COC(=O)[C@@]12CCCCN1[C@H](c1ccc(-c3ccc(Cl)c(Cl)c3)c(OC)c1)[C@H]1C(=O)N(C)C(=O)[C@H]12", "CPE inhibition": "inconclusive: 56.1%"}
{"smiles": "CO[C@H]1CN(C)C(=O)c2ccc(NC(=O)C3CCCCC3)cc2OC[C@@H](C)NC[C@H]1C", "CPE inhibition": "inconclusive: 27.3%"}
{"smiles": "COc1ccc2c3c(n(C)c2c1)[C@@H](CO)N(Cc1ccccc1Cl)CC31CCN(C(C)=O)CC1", "CPE inhibition": "inactive: -2.13%"}
{"smiles": "CO[C@H]1CN(C)C(=O)c2ccc(NC(=O)C3CC3)cc2OC[C@H](C)N(C(=O)C2CCOCC2)C[C@H]1C", "CPE inhibition": "inactive: 7.26%"}
{"smiles": "C[C@H]1CN([C@@H](C)CO)C(=O)c2ccccc2-c2ccccc2CO[C@@H]1CN(C)S(=O)(=O)c1cccc(C#N)c1", "CPE inhibition": "inconclusive: 29%"}
{"smiles": "OCC[C@H]1C[C@@H](O)[C@H](O)[C@@]2(Cc3ccccc3CCO2)O1", "CPE inhibition": "active: 22.9%"}
{"smiles": "Cc1ccccc1-c1nnc(SCC(=O)Nc2cccnc2Cl)o1", "CPE inhibition": "inconclusive: 32.9%"}
{"smiles": "O=C(C1CCCCC1)N1C[C@@H]2[C@H](c3ccccc31)[C@@H](CO)N2Cc1ccccc1Cl", "CPE inhibition": "inactive: 2.29%"}
{"smiles": "COc1cc2ccccc2cc1C(=O)N/N=C/c1cccnc1", "CPE inhibition": "inconclusive: 29.6%"}
{"smiles": "CC1(C)Cc2c(sc(NC(=O)C(=O)NCC3CCCO3)c2C(=O)O)CO1", "note": "(stereo unspecified)", "CPE inhibition": "inconclusive: 22.5%"}
{"smiles": "CO[C@H]1CN(C)C(=O)c2cc(NC(=O)C3CC3)ccc2OC[C@H](C)N(Cc2ccc(F)cc2)C[C@@H]1C", "CPE inhibition": "inactive: 8.96%"}
{"smiles": "CCc1ccccc1NC(=O)Nc1c(C)n(C)n(-c2ccccc2)c1=O", "CPE inhibition": "inconclusive: 34.3%"}
{"smiles": "CCc1ccccc1N1C(=O)C2C3C=CC(CC3)C2C1=O", "note": "(stereo unspecified)", "CPE inhibition": "inconclusive: 27.2%"}
{"smiles": "CO[C@@H]1CN(C)C(=O)c2cc(NC(=O)c3cc(C)on3)ccc2OC[C@H](C)NC[C@@H]1C", "CPE inhibition": "inactive: 4.29%"}
{"smiles": "COc1cc(F)ccc1-c1csc(C(C)(NC(C)=O)c2ccccc2)n1", "note": "(stereo unspecified)", "CPE inhibition": "inconclusive: 43.3%"}
{"smiles": "CCCNC(=O)N1C[C@@H](O)COC[C@H]2O[C@H](CC(=O)NCCCN3CCOCC3)CC[C@@H]21", "CPE inhibition": "inconclusive: 21.1%"}
{"smiles": "C[C@@H]1CN([C@H](C)CO)C(=O)c2cccc(NC(=O)c3ccncc3)c2O[C@H]1CN(C)C(=O)Nc1ccc(F)cc1", "CPE inhibition": "inactive: -0.834%"}
{"smiles": "CCCC#Cc1ccc([C@H]2[C@H]3CN(C(=O)c4ccc(F)cc4)CC(=O)N3[C@H]2CO)cc1", "CPE inhibition": "inactive: -3.98%"}
{"smiles": "COc1ccccc1S(=O)(=O)N[C@H]1CC[C@@H](CC(=O)NCc2cc(F)cc(F)c2)O[C@H]1CO", "CPE inhibition": "inactive: -1.83%"}
{"smiles": "NC(Cc1ccc(Cl)cc1)c1csc(NC(=O)NCCc2ccccc2)n1", "note": "(stereo unspecified)", "CPE inhibition": "inconclusive: 70%"}
{"smiles": "CO[C@@H]1CN(C)C(=O)c2ccc(NC(=O)Nc3cccc(Cl)c3)cc2OC[C@H](C)N(C(=O)Nc2c(C)noc2C)C[C@@H]1C", "CPE inhibition": "inactive: 0.512%"}
{"smiles": "C[C@@H]1CN([C@H](C)CO)C(=O)CCCn2cc(nn2)CO[C@H]1CN(C)Cc1ccc(C(=O)O)cc1", "CPE inhibition": "inactive: 13%"}
{"smiles": "O=S(=O)(c1cccs1)N1CCN(S(=O)(=O)c2cccs2)CC1", "CPE inhibition": "inconclusive: 23.2%"}
{"smiles": "CCN(CC(=O)Nc1cc(Cl)ccc1C)C(=O)c1ccc2c(c1)NC(=O)C(C)S2", "note": "(stereo unspecified)", "CPE inhibition": "active: 50.2%"}
{"smiles": "CCCNC(=O)C[C@H]1CC[C@H]2[C@@H](COC[C@@H](O)CN2C(=O)Nc2ccccc2OC)O1", "CPE inhibition": "active: 43.9%"}
{"smiles": "Cc1ccc(O)c(C2=Nc3ccccc3C2(C)C)c1", "CPE inhibition": "inconclusive: 38.6%"}
{"smiles": "CC(=O)c1ccc(OCc2cc(C(=O)NC3CCCCC3)no2)cc1", "CPE inhibition": "inconclusive: 21.3%"}
{"smiles": "CC(=O)N1[C@@H]2c3ccc(C4=CCCCC4)c(=O)n3C[C@H]1[C@H](CO)[C@H]2C(=O)N[C@H](C)c1ccccc1", "CPE inhibition": "inactive: -3.52%"}
{"smiles": "C[C@@H]1CN([C@H](C)CO)C(=O)c2cc(C#Cc3cccnc3)cnc2O[C@@H]1CN(C)C(=O)CC1CC1", "CPE inhibition": "inactive: -0.408%"}
{"smiles": "CCC(=O)N[C@@H]1C=C[C@H](CC(=O)NCCN2CCCCC2)O[C@@H]1CO", "CPE inhibition": "inactive: 3.24%"}
{"smiles": "CCCNc1c(NS(=O)(=O)c2ccc(Br)cc2)c(=O)oc2ccccc12", "CPE inhibition": "inconclusive: 25.6%"}
{"smiles": "CCCCC#Cc1ccc(C(=O)NNC(=O)Nc2cc(Cl)cc(Cl)c2)o1", "CPE inhibition": "inactive: 2.39%"}
{"smiles": "O=S(=O)(c1ccc(Cl)cc1)n1cccn1", "CPE inhibition": "inconclusive: 20.5%"}
{"smiles": "C[C@H]1CN([C@@H](C)CO)C(=O)c2cc(C#Cc3ccccc3F)cnc2O[C@H]1CN(C)C", "CPE inhibition": "inconclusive: 20.5%"}
{"smiles": "C[C@@H]1CN([C@@H](C)CO)C(=O)c2cc(NS(=O)(=O)c3ccc(F)cc3)ccc2O[C@H]1CN(C)C(=O)NC1CCCCC1", "CPE inhibition": "active: 34.6%"}
